From patent US20130053434A1, “IRREVERSIBLE INHIBITORS USEFUL FOR THE TREATMENT OF KINASE-RELATED PATHOLOGIES” (CENTRE NATIONAL DE LA RECHERCHE SCIENTIFIQUE, priority 2009, published 2013)
“Also recorded” adds a separate entry of the source. At least one compound was matched to its structure with a doubt left.

Tested on: orthotopically implanted RENCA-LN cells
Experiment: orthotopic murine renal cell carcinoma (RENCA) model, in vivo efficacy
Conditions: compared with untreated group
Protocol: RENCA-LN cells were obtained and cultured as described above. Sixty female BALB/c mice of 5 to 6 weeks were orthotopically implanted RENCA-LN cells into the left kidney (4×10^5 cells in 25 μl aliquots into the subcapsular space through a flank incision, Day 0). The mice were randomly divided into 5 groups of 12 mice each. On day 2, therapy was initiated. Animals in the vehicle control group (group 1) received 10 ml/kg Vehicle (PBS w/o Ca/Mg, 10% DMSO, 40% PEG-300) i.p. once daily until day 19. Animals of positive control group (group 2) received 40 mg/kg Sunitinib (Sutent®) p.o. once daily until day 20. […] At necropsy, primary tumor weight and volume, lung weight and number of lung metastases were determined. […] One part of each tumor was snap-frozen in liquid nitrogen and stored at −80° C. whereas the other part was analyzed via ex vivo bioluminescence imaging. During the course of the study, the growth of the orthotopically implanted RENCA tumors was monitored on days 7, 14 and 19 using in vivo bioluminescence imaging. For this purpose, luciferin was injected intraperitoneally (i.p.) into the mice and light emission was measured post injection (10 min) using a NightOWL LB 981 bioluminescence imaging system (Berthold Technologies, Germany). The migration of RENCA tumor cells into the lung (metastasis) was analyzed post necropsy by counting nodules and using the luciferase assay. […]

## CCN(CC)CCNC(=O)c1c(C)[nH]c(/C=C2\C(=O)Nc3ccc(F)cc32)c1C [sunitinib, reference compound]
Lungs inspected at termination
  lung metastasis (metastatic nodules): significant increase in lung metastastatic nodules; also recorded: did promote lung metastasis
Ex vivo
  luciferase activity from lung homogenates: three fold higher
